Experimental data from patent US9260500B2 (Takeda Pharmaceutical Company Limited, priority 2009, dated 2016).

Key:
[1] = general procedure: Fmoc solid-phase peptide synthesis; Rink Amide MBHA resin; Sieber Amide resin; 2-chlorotrityl resin for protected fragments; DCC/HOBt; DIPCDI/HOAt; DIPCDI/HOOBt; PyAOP/HOAt/DIEA for fragment condensation; settings: whole synthesis
[2] = general procedure: Fmoc solid-phase peptide synthesis; Sieber Amide resin; DCC/HOBt; DIPCDI/HOAt; DIPCDI/HOOBt; PyAOP/HOAt/DIEA for fragment condensation; settings: whole synthesis
[3] = general procedure: Fmoc solid-phase peptide synthesis; Rink Amide LL Resin; DCC/HOBt; DIPCDI/HOAt; DIPCDI/HOOBt; PyAOP/HOAt/DIEA for fragment condensation; settings: whole synthesis, scale 0.02 mmol
[4] = general procedure: Fmoc solid-phase peptide synthesis; Rink Amide MBHA resin; DCC/HOBt; DIPCDI/HOAt; DIPCDI/HOOBt; PyAOP/HOAt/DIEA for fragment condensation; settings: whole synthesis
[5] = general procedure: Fmoc solid-phase peptide synthesis; Sieber amide resin; DCC/HOBt; DIPCDI/HOAt; DIPCDI/HOOBt; PyAOP/HOAt/DIEA for fragment condensation; settings: whole synthesis, scale 0.02 mmol

4-Guanidinomethylbenzoyl-[Ala^26, Ile^28,31]-PYY(25-36)
isolated mass ([1]; scale 0.015 mmol): 4.4 mg

4-Aminomethylbenzoyl-[Ala^26, Ile^28,31,Phe^36]-PYY (25-36)
isolated mass ([2]; scale 0.025 mmol): 1.9 mg

Ac-[D-Pro^24,Iva^25,Pya(4)^26,Cha^27,36,Leu(Me)^28,Lys^30,Aib^31]-PYY (23-36)
isolated mass ([2]; scale 0.21 mmol): 279.8 mg

carbamoyl-[Asp^23,D-Pro^24,Cha^27,28,36,Aib^31]-PYY(23-36)
isolated mass ([2]; scale 0.01 mmol): 6.8 mg

(tetrahydro-2H-pyran-4-yl)carbonyl-[D-Pro^24,Pya(4)^26,Cha^27,36,Aib^28,31,Lys^30]-PYY (23-36)
isolated mass ([2]; scale 0.01 mmol): 6.6 mg

[N(iBu)Gly^23, D-Pro^24,Cha^27,28,36,Aib^31]-PYY(23-36)
isolated mass ([2]; scale 0.01 mmol): 7.7 mg

3-Carboxypropionyl-[D-Hyp^24,Iva^25,Pya(4)^26,Cha^27,36,Leu(Me)^28,Lys^30,Aib^31]-PYY (23-36)
isolated mass ([2]; scale 0.25 mmol): 217.2 mg

Ac-[D-Pro^24,Pya(4)^26,Cha^27,36,Aib^28,31,Har^30]-PYY(23-36)
isolated mass [3]: 4.1 mg

Ac-[D-Pro^24,Pya (4)^26,Cha^27,36,Aib^28,31,Lys(Hexyl)^30]-PYY(23-36) (RHEINLKTRQRY; cyclised or stapled)
isolated mass [3]: 2.7 mg

Ac-[D-Hyp^24,Iva^25,28,Pya(4)^26,Cha^27,36,Lys^30,Aib^31]-PYY(23-36)
isolated mass ([2]; scale 0.25 mmol): 250.2 mg

Ac-[D-Cha^24,Abu^26,Cha^27,28,36,Aib^31]-PYY(24-36)
isolated mass ([2]; scale 0.01 mmol): 15.1 mg

4-Aminomethylbenzoyl-[Ala^26,28, Ile^31]-PYY(25-36)
isolated mass ([2]; scale 0.02 mmol): 9.2 mg

Morpholinocarbonyl-[D-Pro^24,Cha^27,36,Leu (Me)^28,Lys^30,Aib^31]-PYY (23-36)
isolated mass ([2]; scale 0.01 mmol): 3.9 mg

4-aminomethylbenzoyl-[Ala^26, Ile^28,31, Har^33]-PYY(25-36)
isolated mass ([4]; scale 0.025 mmol): 2.2 mg

4-({[imino(octylamino)methyl]amino}methyl)benzoyl-[Ala^26, Ile^28,31]-PYY(25-36)
isolated mass ([4]; scale 0.03 mmol): 9.3 mg

tetrahydro-2H-pyran-4-ylcarbamoyl-[D-Pro^24,Pya(4)^26,Cha^27,36,Aib^28,31,Lys^30]-PYY (23-36)
isolated mass ([2]; scale 0.5 mmol): 685 mg

Ac-[D-Pro^24,Cha^27,28,Aib^31]-PYY(23-36)
isolated mass [5]: 1.6 mg

3-Carboxypropionyl-[D-Pro^24,Cha^27,28,36,Lys^30,Aib^31]-PYY(23-36)
isolated mass ([2]; scale 0.01 mmol): 4.2 mg

Benzoyl-[Cha^27,28,36,Aib^31]-PYY(25-36)
isolated mass ([2]; scale 0.1 mmol): 84.1 mg

Ac-[D-Pro^24,Pya(4)^26,Cha^27,36,Aib^28,31,Lys^30]-PYY(23-36)
crude mass ([2]; scale 0.25 mmol): 486.6 mg | isolated mass ([1]; scale 0.75 mmol): 744 mg

(3-carboxypropyl)carbamoyl-[D-Hyp^24,Iva^25,Pya(4)^26,Cha^27,36,Leu(Me)^28,Lys^30,Aib^31]-PYY (23-36)
isolated mass ([2]; scale 0.25 mmol): 345 mg

Ac—[N(iBu)Gly^24,Cha^27,28,36,Aib^31]-PYY(23-36)
isolated mass ([2]; scale 0.01 mmol): 10.9 mg

4-imidazolecarbonyl-[D-Hyp^24,Iva^25,Pya(4)^26,Cha^27,36,Leu(Me)^28,Lys^30,Aib^31]-PYY (23-36)
isolated mass ([2]; scale 0.5 mmol): 365.5 mg

Tetrahydro-2H-pyran-4-yl-carbamoyl-[D-Pro^24, Cha^27,36,Leu(Me)^28,Lys^30,Aib^31]-PYY (23-36)
isolated mass ([2]; scale 0.01 mmol): 11.1 mg

(Tetrahydro-2H-pyran-4-yl)carbamoyl-[Glu^23,D-Pro^24, Pya(4)^26,Cha^27,36,Aib^28,31, Lys^30]-PYY(23-36) (RHYKNLIERQRY; cyclised or stapled)
isolated mass ([2]; scale 0.375 mmol): 316 mg

(Carboxymethyl)carbamoyl-[D-Pro^24,Pya(4)^26,Cha^27,36,Aib^28,31,Lys^30]-PYY (23-36) (RLRAYINLITRQRY; D-residues)
isolated mass ([2]; scale 0.375 mmol): 233 mg

Succinyl-[Acp^22, D-Pro^24, Cha^27,36, Leu(Me)^28,Lys^30,Aib^31]-PYY(22-36)
isolated mass ([2]; scale 0.01 mmol): 11.8 mg

Ac-[D-Pro^24,Pya (4)^26, Cha^27,36,Iva^28,Lys^30,Aib^31]-PYY(23-36)
isolated mass ([2]; scale 0.25 mmol): 174.8 mg

Ac-[D-Pro^24,Pya(4)^26,Cha^27,36,Aib^28,31,Lys(Ac)^30]—PYY (23-36) (LRAYINLITRQRY; D-residues)
isolated mass [3]: 5.1 mg
